# In the supplement of paper PMC8256030:
# “And” between values parts separate entries of the source, which are not always exact repeats. Equal entries are not always repeated. Structures can show the parent of a compound that is named as a salt. The list shows a part of the results. Repeats in this data set agree poorly, so a single value says little.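 HEK293T cells were given each compound shortly before transfection with a reporter in which red mCherry is followed by the SARS-CoV-2 frameshift element and then GFP in the −1 frame, so GFP appears only after frameshifting.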
# Experiments:
# [1] = system: SARS-CoV-2 -1 PRF reporter mCherry-FSE-GFP(-1); assay: mCherry (red) intensity as percent of control; higher = higher upstream reporter expression; conditions: 10 µM; 24 h; HEK293T
# [2] = system: SARS-CoV-2 -1 PRF reporter mCherry-FSE-GFP(-1); assay: percent effect, decrease of GFP/mCherry ratio (-1 PRF reporter) relative to controls; higher = stronger frameshift inhibition; conditions: 10 µM; 24 h; HEK293T
Structure (SMILES),mCherry [1],percent effect [2]
Cc1ncc(CO)c(CO)c1O [pyridoxine],110%,-2.67%
Nc1ccc(S(=O)(=O)Nc2cnc3ccccc3n2)cc1,109%,-4.79%
CCC(=O)OCC(=O)[C@@]1(OC(=O)CC)[C@H](C)C[C@H]2[C@H]3[C@H]([C@@H](O)C[C@@]21C)[C@@]1(C)C=CC(=O)C=C1C[C@H]3Cl,89.4%,-2.84%
Cn1c(=O)c2c(ncn2CC(O)CO)n(C)c1=O (stereo not given) [diprophylline],104%,-2.94%
COc1ccc2nc3cc(Cl)ccc3c(Nc3cc(CN4CCCC4)c(O)c(CN4CCCC4)c3)c2n1,134%,-0.179%
C[C@@H](n1cnc2cc(Cl)ccc2c1=O)[C@](O)(Cn1cncn1)c1ccc(F)cc1F [albaconazole],62.9%,1.81%
CCC(=O)NCC[C@@H]1CCc2ccc3c(c21)CCO3 [ramelteon],85.1%,-0.838%
CC(C)[C@H](NC(=O)[C@H](CC(=O)O)NC(=O)[C@H](CCCCN)NC(=O)[C@@H](N)CCCN=C(N)N)C(=O)N[C@@H](Cc1ccc(O)cc1)C(=O)O [thymopentin],70.6%,-9.39%
NC(Cc1ccccc1)C(=O)O (stereo not given),103%,-3.59%
C[N+](C)(C)CCOC(N)=O [carbachol],91.5% and 99.6%,-1.3% and 4.44%
c1ccc([C@H]2CN3CCSC3=N2)cc1 [Levamisole],61.3%,-0.317%
Cc1cc(C(C)(C)C)c(O)c(C(C)(C)C)c1,96.9%,-0.518%
Clc1ccc(Cn2c(CN3CCCC3)nc3ccccc32)cc1 [clemizole],108%,-6.97%
OCC(O)COc1ccc(Cl)cc1 (stereo not given) [chlorphenesin],106%,-4.56%
CC(O)C(N)C(=O)O (stereo not given),86.7%,-12.8%
CCc1ccc(C(=O)C(C)CN2CCCCC2)cc1 (stereo not given) [eperisone],112%,0.00764%
OCCOc1ccc(/C(=C(/CCCl)c2ccccc2)c2ccccc2)cc1 [ospemifene],70%,-3.16%
CCN1CCCC(OC(=O)C(c2ccccc2)c2ccccc2)C1 (stereo not given),106%,-3.73%
O=C1CC[C@@H](C(=O)O)N1 [pidolic acid],96.9%,-3.48%
NS(=O)(=O)c1ccc(NC(=O)CCC(=O)O)cc1 [sulfasuccinamide],79%,-7.01%
O=C1CCc2ccc(OCCCCN3CCN(c4cccc(Cl)c4Cl)CC3)cc2N1 [aripiprazole],107% and 115%,-2.32% and -6.57%
CCCCCCCCCCCCCCOS(=O)(=O)O [Sodium Tetradecyl Sulfate],103%,-4.39%
CN1CCC(=C2c3ccccc3C=Cc3ccccc32)CC1 [cyproheptadine],105% and 83.2%,-0.635% and -2.3%
Cc1ccccc1N1CCN(CCc2nnc3n2CCCC3)CC1 [dapiprazole],71.2%,2.38%

# Given as tab-separated lines: entries from further up
Structure (SMILES)	mCherry [1]	percent effect [2]
C[N+](C)(C)CCOC(N)=O [carbachol]	91.5% and 99.6%	-1.3% and 4.44%
c1ccc([C@H]2CN3CCSC3=N2)cc1 [Levamisole]	61.3%	-0.317%
Cc1cc(C(C)(C)C)c(O)c(C(C)(C)C)c1	96.9%	-0.518%
Clc1ccc(Cn2c(CN3CCCC3)nc3ccccc32)cc1 [clemizole]	108%	-6.97%
OCC(O)COc1ccc(Cl)cc1 (stereo not given) [chlorphenesin]	106%	-4.56%

# Additional structures.

Structure (SMILES),mCherry [1],percent effect [2]
C=C1c2cccc(O)c2C(O)=C2C(=O)[C@]3(O)C(O)=C(C(N)=O)C(=O)[C@@H](N(C)C)[C@@H]3[C@@H](O)[C@H]12 [Methacycline],32.3%,-10.6%
NC(=O)NO [hydroxycarbamide],99.1%,-5.59%
Cc1cc(=O)oc2cc(O)ccc12 [hymecromone],81.5%,-5.7%
CCOC(=O)NNC(C)c1ccccc1 (stereo not given) [carbenzide],107%,0.0554%
CC[C@@]1(O)C(=O)OCc2c1cc1n(c2=O)Cc2cc3c(CN(C)C)c(O)ccc3nc2-1 [topotecan],167%,7.13%
O=C(O)Cn1c(C(=O)Nc2nc(-c3ccccc3Cl)cs2)cc2ccccc21 [lintitript],134%,-2.36%
CC=CC(=O)N(CC)c1ccccc1C [crotamiton],105%,-3.86%
CO[C@H](C(=O)[C@@H](O)[C@@H](C)O)[C@@H]1Cc2cc3cc(O[C@H]4C[C@@H](O[C@H]5C[C@@H](O)[C@H](O)[C@@H](C)O5)[C@H](O)[C@@H](C)O4)c(C)c(O)c3c(O)c2C(=O)[C@H]1O[C@H]1C[C@@H](O[C@H]2C[C@@H](O[C@H]3C[C@](C)(O)[C@H](O)[C@@H](C)O3)[C@@H](O)[C@@H](C)O2)[C@H](O)[C@@H](C)O1 [Plicamycin],555%,-13.2%
Cc1cc2nc3c(=O)[nH]c(=O)nc-3n(C[C@H](O)[C@H](O)[C@H](O)CO)c2cc1C [riboflavin],73.4%,-40%
O=C(O)CCC(=O)Nc1ccc(S(=O)(=O)Nc2nccs2)cc1 [succinylsulfathiazole],97.5%,-2.47%
C[C@@H]1C[C@H]2[C@@H]3C[C@H](F)C4=CC(=O)C(Cl)=C[C@]4(C)[C@@]3(F)[C@@H](O)C[C@]2(C)[C@@]1(O)C(=O)CO [halometasone],58.9%,-1.34%
NC(=O)CCCCC1CCSS1 (stereo not given),109%,-0.0133%
CC[C@H]1OC(=O)[C@H](C)[C@@H](O[C@H]2C[C@@](C)(OC)[C@@H](O)[C@H](C)O2)[C@H](C)[C@@H](O[C@@H]2O[C@H](C)C[C@H](N(C)C)[C@H]2O)[C@](C)(O)C[C@@H](C)CN(C)[C@H](C)[C@@H](O)[C@]1(C)O,100%,-5.87%
CO/N=C(\C(=O)N[C@@H]1C(=O)N2C(C(=O)O)=C(CSc3nc(=O)c(O)nn3C)CS[C@H]12)c1csc(N)n1,91.9%,-3.64%
CCCN(CC)C(CC)C(=O)Nc1c(C)cccc1C (stereo not given) [Etidocaine],96.1%,-1.2%
c1ccc(-c2cc(CCC3CCNCC3)c3ccccc3n2)cc1 [pipequaline],104%,-4.3%
CC(C)(Oc1ccc(C(=O)c2ccc(Cl)cc2)cc1)C(=O)O,85.7%,-5.95%
O=C(O)[C@H]1/C(=C/CO)O[C@@H]2CC(=O)N21,103% and 89.9%,-0.551% and -12%
CC[C@H]1OC(=O)[C@H](C)[C@@H](O[C@H]2C[C@@](C)(OC)[C@@H](O)[C@H](C)O2)[C@H](C)[C@@H](O[C@@H]2O[C@H](C)C[C@H](N(C)C)[C@H]2O)[C@](C)(O)C[C@@H](C)/C(=N\OCOCCOC)[C@H](C)[C@@H](O)[C@]1(C)O [Roxithromycin],111%,3.88%
O=C(NCCc1ccc(O)c(O)c1)C12CC3CC(CC(C3)C1)C2 [dopamantine],97.9%,-1.67%
COc1cc(OC)c(C(=O)CCCN2CCCC2)c(OC)c1,83.2%,-1.14%
COC(=O)[C@@H]1[C@H]2C[C@H]3c4[nH]c5ccccc5c4CCN3C[C@@H]2CC[C@@H]1O [Yohimbine·HCl],82.5%,-3.79%
CO[C@H]1O[C@@H]2O[C@@]3(C)CC[C@H]4[C@H](C)CC[C@@H]([C@H]1C)[C@@]24OO3 [artemether],146%,1.53%
CCOc1ccc(Cc2nccc3cc(OCC)c(OCC)cc23)cc1OCC [ethaverine],79.1%,-6.73%

Structure (SMILES),mCherry [1],percent effect [2]
O=C(O)[C@H](CCc1ccccc1)N[C@H]1CCCN2CCC[C@@H](C(=O)O)N2C1=O [cilazaprilat],90.8%,-5.34%
Cc1cccc(C)c1NC(=O)/N=C1\CCCN1C [xilobam],98.7%,-1.39%
c1cc(CNCc2ccncc2)ccn1 [gapicomine],90%,-2.44%
NS(=O)(=O)c1cc2c(cc1Cl)NC(c1ccccc1)NC2=O (stereo not given) [fenquizone],71%,-6.3%
COC(=O)[C@H]1[C@H]2C[C@@H]3c4[nH]c5cc(OC)ccc5c4CCN3C[C@H]2C[C@H](OC)[C@@H]1OC [metoserpate],89.5%,-4.86%
CCCCC[C@H](O)/C=C/[C@H]1[C@H](O)CC(=O)[C@@H]1CCCCCCC(=O)O [alprostadil],100%,-4.27%
CCCOc1ccccc1-c1nc2[nH]nnc2c(=O)[nH]1 [Zaprinast],72.5%,3.5%
C[C@]12C=CC(=O)C=C1CC[C@@H]1[C@@H]2[C@@H](O)C[C@@]2(C)[C@H]1CC[C@]2(O)C(=O)COC(=O)CCC(=O)O,97.7%,-2.6%
CC(=O)Nc1c(I)c(C(=O)N[C@H]2C(O)O[C@H](CO)[C@@H](O)[C@@H]2O)c(I)c(N(C)C(C)=O)c1I (stereo not given in full) [Amipaque],108% and 109%,-5.5% and -3.19%
CC(C)NC(=N)NC(=N)Nc1ccc(Cl)cc1 [Proguanil],84.3%,-0.136%
CCN1CCC[C@H]1CNC(=O)c1c(OC)ccc(Br)c1OC [remoxipride],92.3%,1.26%
CO[C@H]1C[C@H](O[C@H]2[C@H](C)O[C@@H](O[C@@H]3/C(C)=C/C[C@@H]4C[C@@H](C[C@]5(C=C[C@H](C)[C@@H](C6CCCCC6)O5)O4)OC(=O)[C@@H]4C=C(C)[C@@H](O)[C@H]5OC/C(=C\C=C\[C@@H]3C)[C@]54O)C[C@@H]2OC)O[C@@H](C)[C@@H]1O,100%,-1.54%
CN(C)CCC(c1ccc(Br)cc1)c1ccccn1 (stereo not given),146%,0.28%
CC(=O)Oc1cccc(C)c1,95.7%,-5.51%
c1ccc(Cc2nc3ccccc3[nH]2)cc1 [bendazol],110%,-1.6%
CO/N=C(\C(=O)N[C@@H]1C(=O)N2C(C(=O)[O-])=C(C[N+]3(C)CCCC3)CS[C@H]12)c1csc(N)n1 [Cefepime],108%,-2.35%
CC(C)c1cc(C(C)C)c(-c2csc(N(CCN(C)C)Cc3cccnc3)n2)c(C(C)C)c1 [foropafant],40.2%,-8.85%
Nc1ccc(S(=O)(=O)Nc2nccs2)cc1 [sulfathiazole],98.5%,-2.68%
c1ccc(C2CN3CCSC3=N2)cc1 (stereo not given) [tetramisole],101%,-1.78%
C[N+](C)(C)CCOC(=O)CCC(=O)OCC[N+](C)(C)C [Succinylcholine],82.7%,-4.02%
NS(=O)(=O)c1cc(C(=O)O)cc(N2CCCC2)c1Oc1ccccc1 [piretanide],101%,0.961%
CC(=O)N[C@@H](CC(=O)N[C@@H](CCC(=O)O)C(=O)O)C(=O)O [spaglumic acid],84.7%,-0.222%
